# PubChem BioAssay AID743448, Peter MacCallum Cancer Centre | 2014
# Aim: 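Test whether knock-downs sensitising to vorinostat hold across several colon lines but not etoposide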 (follow-up of hits)
# Cell system: four human colon cancer cell lines: HCT116-VR (vorinostat-resistant HCT116 derivative), SW480, SW620 and LIM1215
# Reagents: siRNA pool against human genes, 40 nM siRNA pool
# Duration: drug added two days after transfection, read one day later
# Treatment: vorinostat 2.5 µM on one half of each plate, etoposide 5 µM on the other half
# Cell line and drug panel: SW620 cells with vorinostat
# Measured: 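Caspase luminescence and viability fluorescence, each expressed relative to mock transfection and also as robust z-scores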
# Scale: caspase ratio to mock: higher = more caspase activity than mock; viability ratio to mock: higher = more live cells than mock
# Rule for the call: 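Hit means caspase ratio to mock at least 1.6, or viability ratio to mock at most 0.75; wells with strong death in the absence of drug get no call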
# Calls: active = caspase or viability hit in this panel; inactive = no change, or unhealthy well
# Shown is an unselected part of the 106 reagents, under one of the conditions tested. 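Calls are per line and drug panel including etoposide, not vorinostat-specific; gene picks needed hits in two or more extra lines with vorinostat versus etoposide.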 A number with no mark means an inactive call. Not all columns of the deposit are shown.
gene knocked down,caspase ratio to mock,viability ratio to mock
AQR,1.79 (active),0.67
RERE,1.18,0.98
LRP3,1.43,0.98
POLR2L,1.52,0.79
RBBP8,1.73 (active),0.9
C1orf210,1.76 (active),0.68
RGS18,1.62 (active),1.05
PSMA7,1.61 (active),0.74
